Source: publication PMC5955111
For at least one entry, the source does not settle the construct or the ends of the probe. For part of these data: Weaker means in comparison with the reference protein, sequence or condition of that experiment. For part of these data: At least one verdict rests on a figure or table, not on a statement of the authors.

Protein sequences, listed by entry. Tags and fused reporters are not part of them. Lines headed by an entry give the natural chain unless they say otherwise; changes in a name come on top.
UniProt P67809: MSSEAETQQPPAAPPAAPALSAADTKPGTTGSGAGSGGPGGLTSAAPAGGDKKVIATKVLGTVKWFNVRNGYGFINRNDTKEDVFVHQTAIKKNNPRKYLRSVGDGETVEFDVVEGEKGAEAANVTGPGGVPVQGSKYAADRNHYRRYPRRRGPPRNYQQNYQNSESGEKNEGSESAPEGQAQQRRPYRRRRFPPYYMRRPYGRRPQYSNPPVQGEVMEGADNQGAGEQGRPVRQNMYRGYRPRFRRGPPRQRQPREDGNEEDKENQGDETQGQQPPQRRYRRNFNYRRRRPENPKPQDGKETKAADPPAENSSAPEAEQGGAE
UniProt P09874, whole entry: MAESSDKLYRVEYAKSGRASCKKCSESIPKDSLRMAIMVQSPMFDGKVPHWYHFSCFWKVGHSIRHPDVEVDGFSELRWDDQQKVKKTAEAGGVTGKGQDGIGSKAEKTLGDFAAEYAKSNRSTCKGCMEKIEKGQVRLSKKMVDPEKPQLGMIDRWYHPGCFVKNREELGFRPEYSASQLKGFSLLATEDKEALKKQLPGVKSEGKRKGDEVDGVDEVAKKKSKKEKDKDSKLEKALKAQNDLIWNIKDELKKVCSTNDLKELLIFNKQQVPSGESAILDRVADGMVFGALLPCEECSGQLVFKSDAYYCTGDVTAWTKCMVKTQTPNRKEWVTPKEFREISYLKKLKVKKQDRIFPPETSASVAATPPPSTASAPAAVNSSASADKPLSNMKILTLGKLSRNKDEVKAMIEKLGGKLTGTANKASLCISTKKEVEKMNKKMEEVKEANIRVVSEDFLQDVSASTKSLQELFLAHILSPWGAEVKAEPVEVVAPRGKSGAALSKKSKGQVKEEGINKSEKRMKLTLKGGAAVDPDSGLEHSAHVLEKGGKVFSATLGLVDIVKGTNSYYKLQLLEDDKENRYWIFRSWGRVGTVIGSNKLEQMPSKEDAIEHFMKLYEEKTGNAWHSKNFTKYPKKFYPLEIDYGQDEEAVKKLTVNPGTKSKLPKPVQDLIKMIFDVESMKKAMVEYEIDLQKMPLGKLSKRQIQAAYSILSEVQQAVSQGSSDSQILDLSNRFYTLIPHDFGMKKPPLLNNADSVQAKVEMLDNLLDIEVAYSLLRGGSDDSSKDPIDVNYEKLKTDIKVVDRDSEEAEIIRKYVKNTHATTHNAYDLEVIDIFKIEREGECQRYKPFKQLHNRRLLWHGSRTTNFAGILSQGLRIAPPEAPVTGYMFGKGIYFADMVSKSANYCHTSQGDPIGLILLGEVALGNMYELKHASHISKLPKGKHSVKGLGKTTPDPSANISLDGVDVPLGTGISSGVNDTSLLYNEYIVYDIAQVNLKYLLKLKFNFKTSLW

What was measured:
YB-1 (human) [1] = target: YB-1 (human) (UniProt P67809); experiment: EMSA; conditions: no PARP1, 0-400 nM YB-1; EMSA: 37 C 10 min, 7.6% native PAGE in 25 mM Tris-borate pH 8.3 at 4 C; DNA 100 nM (anisotropy), 40 nM in Methods vs 100 nM in Figure 1B legend (EMSA); recombinant protein; protein details: His-tag; label: 3'-FAM on ODN1, for gel shift ODN1 also 5'-32P
YB-1 + PARP1 [2] = experiment: EMSA; conditions: after NAD+ (PARylation), free DNA accumulates with time; EMSA: 37 C 10 min, 7.6% native PAGE in 25 mM Tris-borate pH 8.3 at 4 C; DNA 100 nM (anisotropy), 40 nM in Methods vs 100 nM in Figure 1B legend (EMSA); recombinant protein; protein details: His-tag; label: 3'-FAM on ODN1, for gel shift ODN1 also 5'-32P
PARP1 (human) = PARP1 (human) (UniProt P09874); experiment: fluorescence anisotropy; conditions: anisotropy at 25 C, recombinant protein, label: 3'-FAM on ODN1, for gel shift ODN1 also 5'-32P
YB-1 (human) [3] = target: YB-1 (human) (UniProt P67809); experiment: fluorescence anisotropy; conditions: 500 uM NAD+ without PARP1, PARP1 needed for DNA release; anisotropy at 25 C; recombinant protein; protein details: His-tag; label: 3'-FAM on ODN1, for gel shift ODN1 also 5'-32P
YB-1 + PARP1 [4] = experiment: fluorescence anisotropy; conditions: 500 uM NAD+, PARylation releases DNA, lag at high YB-1; anisotropy at 25 C; recombinant protein; protein details: His-tag; label: 3'-FAM on ODN1, for gel shift ODN1 also 5'-32P

GGAAGACCCTGACGTTTCCCAACTTTATCGCC / GGCGATAAAGTTGGG / AAACGTCAGGGTCTTCC [Nick (ODN1+ODN2+ODN3)]
binding result (YB-1 (human) [1]): binds
binding result (YB-1 + PARP1 [2]): binds more weakly
binding result (PARP1 (human); poly(ADP-ribosyl)ated PARP1 (NAD+ added), DNA released): binds more weakly
binding result (PARP1 (human); unmodified PARP1, no NAD+): binds
binding result (YB-1 (human) [3]): binds
binding result (YB-1 + PARP1 [4]): binds more weakly
